Sequences of proteins named here, by UniProt entry; tags and fusion partners are left off. Residues count along the entry.
UniProt P78536, residues 215-824: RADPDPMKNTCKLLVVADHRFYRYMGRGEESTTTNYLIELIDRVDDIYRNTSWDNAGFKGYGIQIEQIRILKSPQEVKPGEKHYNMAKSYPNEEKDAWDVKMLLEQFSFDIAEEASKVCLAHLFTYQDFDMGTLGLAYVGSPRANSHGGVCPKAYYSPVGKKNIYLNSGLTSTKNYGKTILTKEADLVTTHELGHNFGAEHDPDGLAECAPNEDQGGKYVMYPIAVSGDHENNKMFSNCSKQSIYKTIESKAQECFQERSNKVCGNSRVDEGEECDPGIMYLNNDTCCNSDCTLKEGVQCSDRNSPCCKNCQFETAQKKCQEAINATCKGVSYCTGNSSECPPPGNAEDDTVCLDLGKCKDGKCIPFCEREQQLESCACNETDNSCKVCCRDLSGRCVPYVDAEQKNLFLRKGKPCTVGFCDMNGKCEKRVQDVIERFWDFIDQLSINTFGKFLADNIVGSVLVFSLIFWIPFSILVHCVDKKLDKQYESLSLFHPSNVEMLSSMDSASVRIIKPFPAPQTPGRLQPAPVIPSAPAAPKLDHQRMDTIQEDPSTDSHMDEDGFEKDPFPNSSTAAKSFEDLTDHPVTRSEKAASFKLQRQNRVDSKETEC
UniProt P16070, residues 21-742: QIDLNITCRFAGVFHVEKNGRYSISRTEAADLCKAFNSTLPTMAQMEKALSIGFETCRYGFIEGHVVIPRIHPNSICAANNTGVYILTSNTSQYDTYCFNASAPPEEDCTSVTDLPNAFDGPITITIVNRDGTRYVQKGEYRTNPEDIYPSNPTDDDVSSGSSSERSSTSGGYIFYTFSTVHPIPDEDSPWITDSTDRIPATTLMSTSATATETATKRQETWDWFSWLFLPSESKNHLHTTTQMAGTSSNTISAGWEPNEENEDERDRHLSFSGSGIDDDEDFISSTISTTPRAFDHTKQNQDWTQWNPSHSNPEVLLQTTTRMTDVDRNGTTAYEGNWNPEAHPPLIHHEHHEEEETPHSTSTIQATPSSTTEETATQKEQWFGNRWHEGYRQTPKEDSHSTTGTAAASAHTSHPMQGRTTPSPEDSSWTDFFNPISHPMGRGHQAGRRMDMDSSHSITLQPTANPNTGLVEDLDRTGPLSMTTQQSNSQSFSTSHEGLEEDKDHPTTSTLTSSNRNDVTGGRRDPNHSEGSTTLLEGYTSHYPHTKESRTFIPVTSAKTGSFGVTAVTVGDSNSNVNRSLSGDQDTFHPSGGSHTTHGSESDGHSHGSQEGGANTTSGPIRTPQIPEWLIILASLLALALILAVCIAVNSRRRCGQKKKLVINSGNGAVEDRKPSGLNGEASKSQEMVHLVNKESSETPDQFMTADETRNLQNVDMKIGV

In publication PMC10721602:

Legend:
[1] = target: endogenous EGFR of A431 and NCI-H226 cells (human (endogenous in A431 and NCI-H226)) (UniProt P00533); test: proximity labelling; EGFR-FabID on adherent NCI-H226 cells (endogenous EGFR), 37 °C, 3 h; DMSO, EGF, EGF+gefitinib or gefitinib alone; biotinylated peptides enriched with Tamavidin 2-REV, LC-MS/MS; AGIA-FabID as control
[2] = target: endogenous EGFR of A431 and NCI-H226 cells (human (endogenous in A431 and NCI-H226)) (UniProt P00533); test: proximity labelling; EGFR-FabID on adherent A431 cells (endogenous EGFR), 37 °C, 2 h; DMSO, EGF, EGF+gefitinib or gefitinib alone; biotinylated peptides enriched with Tamavidin 2-REV, LC-MS/MS; AGIA-FabID as control
[3] = target: human EGFR overexpressed in Expi293F cells (pcDNA3.1-EGFR) (human) (UniProt P00533); test: proximity labelling; EGFR-FabID (AirID-Fab of EMab-134) with ATP, MgCl2 and d-biotin on suspended Expi293F cells transiently overexpressing EGFR, 37 °C, 2 h; biotinylated peptides enriched with Tamavidin 2-REV, LC-MS/MS; AGIA-FabID as control (ratio >1, P < 0.05); extracellular sites only

binding [1]	binding [2]	binding [3]	Substance
binds	–	–	L1CAM (from UniProt P32004 20-1257)
binds	binds	–	ADAM17 (disintegrin and metalloproteinase domain-containing protein 17), endogenous (from UniProt P78536 215-824) (enzyme)
binds	binds	binds	CD44 (cell differentiation 44) (from UniProt P16070 21-742)
binds	binds	binds	EEF1A1 (elongation factor 1-alpha 1) (from UniProt P68104 1-462)

No constants are given. Whether binding was seen depends on the method and setting. Binding seen in cells or lysates may run through a third protein. A yes stands for co-enrichment or nearness to the bait. Other partners may have been found.
